These are yes or no findings as the source states them, for the method shown. In cells and extracts the contact can be indirect. Some results given as binding are weak or reduced against the parent protein; the word gives no strength. Tags and fused reporters may be left off the sequences shown.

Amino acid sequences for entries named in this document (tags omitted).
UniProt O15078: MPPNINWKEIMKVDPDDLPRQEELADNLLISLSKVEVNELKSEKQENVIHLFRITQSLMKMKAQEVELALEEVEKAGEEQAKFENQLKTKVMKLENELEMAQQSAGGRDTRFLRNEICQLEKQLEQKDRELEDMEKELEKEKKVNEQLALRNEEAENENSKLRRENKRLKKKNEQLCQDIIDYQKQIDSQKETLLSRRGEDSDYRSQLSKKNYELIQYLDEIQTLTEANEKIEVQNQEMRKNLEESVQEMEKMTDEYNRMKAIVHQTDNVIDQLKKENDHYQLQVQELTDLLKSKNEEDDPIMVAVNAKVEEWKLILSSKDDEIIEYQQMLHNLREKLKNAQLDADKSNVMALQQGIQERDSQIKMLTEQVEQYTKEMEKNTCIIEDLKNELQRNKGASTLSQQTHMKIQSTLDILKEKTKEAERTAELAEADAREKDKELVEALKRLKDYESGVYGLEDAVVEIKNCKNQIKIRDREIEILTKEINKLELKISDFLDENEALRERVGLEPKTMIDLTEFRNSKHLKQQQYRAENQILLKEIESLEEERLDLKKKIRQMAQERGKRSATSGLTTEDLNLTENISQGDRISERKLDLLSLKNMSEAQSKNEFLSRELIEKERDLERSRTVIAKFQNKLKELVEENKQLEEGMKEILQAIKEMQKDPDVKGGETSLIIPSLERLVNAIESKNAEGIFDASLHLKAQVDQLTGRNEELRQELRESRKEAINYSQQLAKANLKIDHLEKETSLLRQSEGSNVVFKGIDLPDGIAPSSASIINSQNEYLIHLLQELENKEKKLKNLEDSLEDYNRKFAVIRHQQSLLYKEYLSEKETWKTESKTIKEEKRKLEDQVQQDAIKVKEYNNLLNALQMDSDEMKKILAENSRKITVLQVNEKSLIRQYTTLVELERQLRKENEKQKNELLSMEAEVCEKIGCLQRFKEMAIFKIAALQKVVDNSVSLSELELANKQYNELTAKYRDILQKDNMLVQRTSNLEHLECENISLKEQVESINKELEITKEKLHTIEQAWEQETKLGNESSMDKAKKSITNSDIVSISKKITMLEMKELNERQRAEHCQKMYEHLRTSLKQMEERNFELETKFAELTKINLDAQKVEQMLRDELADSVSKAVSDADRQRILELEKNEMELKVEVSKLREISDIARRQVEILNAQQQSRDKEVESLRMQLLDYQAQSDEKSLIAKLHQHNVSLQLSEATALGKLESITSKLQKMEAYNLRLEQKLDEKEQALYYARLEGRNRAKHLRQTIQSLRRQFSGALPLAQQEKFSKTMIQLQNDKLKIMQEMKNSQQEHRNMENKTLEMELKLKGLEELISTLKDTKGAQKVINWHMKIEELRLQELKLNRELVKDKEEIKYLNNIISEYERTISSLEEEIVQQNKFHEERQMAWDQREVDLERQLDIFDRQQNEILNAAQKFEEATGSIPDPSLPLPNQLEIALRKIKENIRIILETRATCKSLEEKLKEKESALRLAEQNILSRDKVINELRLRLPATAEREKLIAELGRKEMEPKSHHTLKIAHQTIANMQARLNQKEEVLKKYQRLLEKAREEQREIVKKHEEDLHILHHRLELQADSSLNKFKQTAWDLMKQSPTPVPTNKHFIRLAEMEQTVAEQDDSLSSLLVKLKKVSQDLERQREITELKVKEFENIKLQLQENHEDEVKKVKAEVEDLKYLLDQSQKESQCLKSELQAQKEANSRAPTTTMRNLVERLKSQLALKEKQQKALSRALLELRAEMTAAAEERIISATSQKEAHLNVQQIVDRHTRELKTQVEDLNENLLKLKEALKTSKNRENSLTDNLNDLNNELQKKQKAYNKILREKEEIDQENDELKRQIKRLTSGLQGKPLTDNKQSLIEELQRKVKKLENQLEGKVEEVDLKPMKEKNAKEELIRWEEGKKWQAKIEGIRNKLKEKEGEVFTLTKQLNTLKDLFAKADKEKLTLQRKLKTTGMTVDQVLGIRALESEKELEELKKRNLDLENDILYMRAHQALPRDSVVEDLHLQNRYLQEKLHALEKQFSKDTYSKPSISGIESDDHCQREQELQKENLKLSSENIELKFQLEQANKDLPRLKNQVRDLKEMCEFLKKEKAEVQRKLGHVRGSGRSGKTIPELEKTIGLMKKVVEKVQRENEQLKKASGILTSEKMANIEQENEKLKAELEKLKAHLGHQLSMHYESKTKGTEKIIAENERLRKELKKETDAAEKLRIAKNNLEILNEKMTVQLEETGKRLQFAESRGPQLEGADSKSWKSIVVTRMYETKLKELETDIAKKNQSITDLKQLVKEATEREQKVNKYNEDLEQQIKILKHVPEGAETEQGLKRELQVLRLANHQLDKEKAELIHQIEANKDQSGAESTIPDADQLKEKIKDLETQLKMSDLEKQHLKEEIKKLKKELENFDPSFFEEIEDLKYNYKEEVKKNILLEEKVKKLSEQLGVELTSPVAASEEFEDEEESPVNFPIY

The assay has as its target T1, wild-type C21orf2 tagged with a C-terminal turbo-GFP (tGFP) (human) (UniProt O43822).
T1 sequence: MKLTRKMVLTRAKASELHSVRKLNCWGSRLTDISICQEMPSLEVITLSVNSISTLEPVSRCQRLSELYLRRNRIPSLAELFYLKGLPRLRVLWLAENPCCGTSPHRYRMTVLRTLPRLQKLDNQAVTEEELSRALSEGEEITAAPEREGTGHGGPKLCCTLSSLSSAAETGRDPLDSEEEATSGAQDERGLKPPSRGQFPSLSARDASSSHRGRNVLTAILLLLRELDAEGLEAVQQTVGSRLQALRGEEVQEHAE
Put plainly: co-IP.

Turning to “centrosomal protein of 290kDA (CEP290) (from UniProt O15078 1-2479)”, the binding result was “binds”.
